According to patent US20240392023A1 (ABCLON, published 2024):
These are yes or no findings as the source states them, for the method shown. Some results given as binding are weak or reduced against the parent protein; the word gives no strength. Where a sequence is shown, tags or fusion partners need not be part of it.

Experiments:
[1] = target: CD30 D1D2-mFc fusion protein (murine); experiment: ELISA on plate coated with 1 µg/mL CD30 D1D2-mFc, anti-human IgG-HRP
[2] = target: CD30 D1L-mFc fusion protein (murine); experiment: ELISA on plate coated with 1 µg/mL CD30 D1L-mFc, anti-human IgG-HRP
[3] = target: CD30 LD2-mFc fusion protein (murine); experiment: ELISA on plate coated with 1 µg/mL CD30 LD2-mFc, anti-human IgG-HRP

Binder | binding [1] | binding [2] | binding [3]
T1-8 anti-CD30 scFv-Fc (Fc fusion, scFv-Fc-conjugated form (Zb-Fc); also called Zb-Fc form; not shown: Human Fc of the scFv-Fc (Zb-Fc) form and its junction to the scFv) scFv: EVQLLESGGGLVQPGGSLRLSCAASGFTFSSYMSWVRQAPGKGLEWVSSIGSGYYSTYYADSVKGRFTISRDNSKNTLYLQMNSLRAEDTAVYYCARDYYGGFDYWGQGTLVTVSSGGGGSGGGGSGGGGSQSVLTQPPSASGTPGQRVTISCSGSSSNIGSNYVYWYQQLPGTAPKLLIYRNNQRPSGVPDRFSGSKSGTSASLAISGLRSEDEADYYCAAYDSYSYVFGGGTKLTVLG |  | binds | 
T1-36 anti-CD30 scFv-Fc (Fc fusion, scFv-Fc-conjugated form (Zb-Fc); also called Zb-Fc form; not shown: Fc of the scFv-Fc (Zb-Fc) form and its junction) scFv: EVQLLESGGGLVQPGGSLRLSCAASGFTFSYYYMSWVRQAPGKGLEWVSYIGGGGSGTYYADSVKGRFTISRDNSKNTLYLQMNSLRAEDTAVYYCARGPYYGYFDYWGQGTLVTVSSGGGGSGGGGSGGGGSQSVLTQPPSASGTPGQRVTISCSGSSSNIGSNYVYWYQQLPGTAPKLLIYRNNQRPSGVPDRFSGSKSGTSASLAISGLRSEDEADYYCAAYPSYDSYVFGGGTKLTVLG |  |  | binds
T1-159 anti-CD30 scFv-Fc (Fc fusion, scFv-Fc-conjugated form (Zb-Fc); also called Zb-Fc form; not shown: Fc of the scFv-Fc (Zb-Fc) form and any junction to it) scFv: EVQLLESGGGLVQPGGSLRLSCAASGFTFSSYGMSWVRQAPGKGLEWVSSIYYYSGGTYYADSVKGRFTISRDNSKNTLYLQMNSLRAEDTAVYYCARNDYRNNSDFDYWGQGTLVTVSSGGGGSGGGGSGGGGSQSVLTQPPSASGTPGQRVTISCSGSSSNIGSNYVYWYQQLPGTAPKLLIYRNNQRPSGVPDRFSGSKSGTSASLAISGLRSEDEADYYCAAYYPYYYVFGGGTKLTVLG |  | binds | 

Further lines, with some results ahead:

binding [1] | binding [2] | Binder | binding [3]
binds | binds | T1-141 anti-CD30 scFv-Fc (Fc fusion, scFv-Fc-conjugated form (Zb-Fc); also called Zb-Fc form; not shown: Fc of the scFv-Fc (Zb-Fc) form and its junction) scFv: EVQLLESGGGLVQPGGSLRLSCAASGFTFSYYDMSWVRQAPGKGLEWVSGIYGSGSTYYADSVKGRFTISRDNSKNTLYLQMNSLRAEDTAVYYCARYSYYDSYSDYFDYWGQGTLVTVSSGGGGSGGGGSGGGGSQSVLTQPPSASGTPGQRVTISCSGSSSNIGSNYVYWYQQLPGTAPKLLIYRNNQRPSGVPDRFSGSKSGTSASLAISGLRSEDEADYYCAAYSYGYYVFGGGTKLTVLG | 
binds | binds | T1-23 anti-CD30 scFv-Fc (Fc fusion, scFv-Fc-conjugated form (Zb-Fc); also called Zb-Fc form; not shown: Fc of the scFv-Fc (Zb-Fc) form and its junction) scFv: EVQLLESGGGLVQPGGSLRLSCAASGFTFSSYSMSWVRQAPGKGLEWVSGIGYPYYTYYADSVKGRFTISRDNSKNTLYLQMNSLRAEDTAVYYCARYYYDYGFDYWGQGTLVTVSSGGGGSGGGGSGGGGSQSVLTQPPSASGTPGQRVTISCSGSSSNIGSNYVYWYQQLPGTAPKLLIYRNNQRPSGVPDRFSGSKSGTSASLAISGLRSEDEADYYCAAYRSYDYVFGGGTKLTVLG | 
